Measured values: patent US11696917B2, “Agent enhancing antitumor effect using pyrazolo[3,4-d]pyrimidine compound” (TAIHO PHARMACEUTICAL CO., LTD., priority 2017, dated 2023)
At least one structure is not confirmed: it was looked up by name or label, or the drawing left a doubt.

Tests used:
[1] = system: Human stomach cancer cells 4-1st; test: Combination of Compound 1 and trastuzumab (in vivo), subcutaneous tumor in nude mice; parameters: species or system nude mouse (BALB/cAJcl-nu/nu); conditions: Aspin-Welch's t-test
[2] = system: human stomach cancer cell line NCI-N87; test: Combination of Compound 1 and capecitabine (in vivo), subcutaneous tumor in nude mice; parameters: species or system nude mouse (BALB/cAJcl-nu/nu); conditions: Dunnett's test
Method: A human stomach cancer cell line NCI-N87 was obtained from American Type Culture Collection (ATCC). The cell line was cultured at 37° C. in a 5% CO2 incubator using RPMI-1640 (containing 4.5 g/L glucose, 10 mM HEPES, and 1 mM sodium pyruvate) (Wako Pure Chemical Industries, Ltd.) medium containing 10% fetal bovine serum (FBS).
The NCI-N87 cells were resuspended at a concentration of 8×10^7 cells/mL in PBS.
The cell suspension was subcutaneously transplanted in an amount of 8×10^6 cells/0.1 mL to the right chest of a 6-week-old nude mouse (BALB/cAJcl-nu/nu, CLEA Japan, Inc.) using a 1 mL syringe for tuberculin and a 25 G injection needle.
Electronic calipers were used in tumor size measurement.

[3] = system: Human stomach cancer cells 4-1st; test: Combination of Compound 1 and trastuzumab emtansine (in vivo), subcutaneous tumor in nude mice; conditions: Aspin-Welch's t-test
Source text: Human stomach cancer cells 4-1st were obtained as fragment tumor from the Central Institute for Experimental Animals. Tumor was excised approximately one month after subcutaneous transplantation and passage in a nude mouse (BALB/cAJcl-nu/nu, CLEA Japan, Inc.), and prepared into a fragment of approximately 2 mm square. A transplantation needle was packed with one fragment and subcutaneously inserted from around the right most distal rib of a nude mouse. After entrance to the right back, the inner cylinder was pushed to eject and transplant the tumor. Electronic calipers were used in tumor size measurement, and the major axis and the minor axis of the tumor of each mouse were measured by sandwiching the tumor between the measuring surfaces of the electronic calipers (Days 0, 4, 8, 11 and 15). A tumor volume (TV) was calculated from the major axis and the minor axis. A relative tumor volume (RTV) and a rate of change in relative tumor volume (T/C) were calculated from the calculated tumor volume. TV, RTV, and T/C were calculated according to the following expressions. […]
An electronic balance for animals was used in body weight measurement. A rate of change in body weight on day n (BWCn) was calculated from the body weight on day n (BWn) according to the following expression. […]

Measured: RTV on Day 15 compared with the control group (in words)

C=CC(=O)N1CCC[C@@H](n2nc(C(=O)Nc3ccc(CC(=O)N(C)C)c(C)c3C)c3c(N)ncnc32)C1 [Compound 1, (R)-1-(1-acryloylpiperidin-3-yl)-4-amino-N-(4-(2-(dimethylamino)-2-oxoethyl)-2,3-dimethylphenyl)-1H-pyrazolo[3,4-d]pyrimidine-3-carboxamide]
significantly lower: all assays above
